From PubChem BioAssay AID1487 (National Center for Advancing Translational Sciences (NCATS), 2009)
Some of the results follow. Further columns of the screen follow, without active or inactive calls. Compounds called inactive in the main read-out are mostly missing here. Words in brackets tell the shape of the fitted curve; partial curves, single points and poor fits give uncertain potencies.

Assay: qHTS Assay for Modulators of Lamin A Splicing
Settings: HeLa LMNA splicing GFP/RFP minigene ratio, 48 h
Outline: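 S3 HeLa stable clones carrying a lamin A-EGFP splicing minigene plus DsRed2 were seeded at 600 cells/well in Opti-MEM with 2% FBS, pin-dosed and incubated 48 h at 37°C. Acumen cytometry (488 nm) gave the GFP/RFP total-intensity ratio.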

[1] = measured here: GFP splicing reporter channel
[2] = measured here: RFP viability control channel

| Structure (SMILES) | AC50 [1] | AC50 [2] |
| --- | --- | --- |
| CC(=O)Nc1ccccc1OCC(=O)c1cc(C)n(Cc2cccs2)c1C | 0.126 µM [rising, full curve] | 0.126 µM [rising, full curve] |
| CCOC(=O)C1(Cc2cccc(OC)c2)CCN(Cc2ccc(OC)c(OC)c2)CC1 | 0.0631 µM [falling, full curve, poor fit] |  |
| O=C(COc1nc2ccccc2nc1N1CCOCC1)Nc1ccc(S(=O)(=O)N2CCCC2)cc1 | 15.8 µM [rising, single point] |  |
| Clc1ccc2c(N/N=C/c3cccc(Br)c3)ccnc2c1 |  | 15.8 µM [rising, partial curve, poor fit] |
| Cc1cccc(NC(=S)NNC(=O)c2csc3c2CCC(C)C3)c1 (configuration not stated) |  | 35.5 µM [rising, single point] |
| Cc1ccc(NC(=S)N(Cc2cccs2)Cc2cc3cc(C)ccc3[nH]c2=O)cc1 |  | 2.82 µM [rising, full curve] |
| C#CCOc1ccc(/C=N/O)cc1Cl |  | 35.5 µM [falling, partial curve, poor fit] |
| COc1ccc(CNc2ccnc(-c3ccccc3OC)n2)c(OC)c1 | 8.91 µM [falling, partial curve] |  |
| CCOc1cc(C(=S)N2CCC(O)CC2)ccc1OS(=O)(=O)c1ccc(Br)cc1 | 14.1 µM [rising, single point] | 15.8 µM [rising, single point] |
| COc1ccccc1-c1cc(C(F)(F)F)nc(S(=O)(=O)CCCC(=O)NC(C)C)n1 | 2.51 µM [falling, full curve] | 3.16 µM [falling, full curve] |
| Cc1nc(SCc2ccccc2F)c2cnn(-c3ccccc3)c2n1 | 1.58 µM [falling, full curve] | 11.2 µM [rising, single point] |
| CCC1CCCCN1CCCNC(=O)Cn1nc(-c2ccccc2)ccc1=O (configuration not stated) |  | 20 µM [rising, single point] |
| Cc1c(C(=O)NN2CCCCC2)nn(-c2ccc(Cl)cc2Cl)c1-c1ccc(Cl)cc1 | 0.000891 µM [falling, full curve, poor fit] | 0.000891 µM [falling, full curve, poor fit] |
| Cc1cccc(CNc2ncnc3ccc(-c4ccoc4)cc23)c1 | 20 µM [falling, partial curve] | 11.2 µM [falling, partial curve] |
| O=C(c1cc(COc2ccc(F)cc2F)on1)N1CCCC(c2ccccc2)C1 (configuration not stated) | 11.2 µM [rising, partial curve] | 14.1 µM [rising, partial curve] |
| Cc1ccc(NS(=O)(=O)c2cc(NC(=O)C(C)Oc3ccccc3)ccc2C)c(C)c1 (configuration not stated) |  | 35.5 µM [rising, single point] |
| CCOc1ccc(/C=C2\SC(=S)NC2=O)cc1OC | 0.794 µM [rising, full curve, poor fit] | 0.891 µM [rising, full curve, poor fit] |
| Clc1ccc(C[n+]2cc(-c3ccccc3)n3c2CCC3)cc1Cl |  | 11.2 µM [rising, partial curve] |
| CCCC(=O)C1=C(O)C(C(=O)OC)C(C)(C)CC1=Nc1ccc(C)cc1 (configuration not stated) | 35.5 µM [falling, single point] | 35.5 µM [falling, single point] |
| CC(=O)C1=C(O)C(=O)N(CCc2c[nH]c3ccccc23)C1c1ccc(C)cc1 (configuration not stated) | 0.00355 µM [rising, full curve, poor fit] |  |
| CCOC(=O)Cc1csc(NC(=O)/C=C\c2ccccc2Cl)n1 | 35.5 µM [falling, single point] | 22.4 µM [falling, single point] |
| CSc1cccc(NC(=O)C2CCN(S(=O)(=O)c3ccc(F)cc3)CC2)c1 | 14.1 µM [rising, single point] | 25.1 µM [rising, single point] |
| COc1ccc(S(=O)(=O)N2CCCCCC2)cc1N(C)S(=O)(=O)c1ccccc1 |  | 14.1 µM [rising, single point] |
| CCC(=O)OCCNc1cc(Sc2nc3ccccc3[nH]2)c2nonc2c1[N+](=O)[O-] |  | 25.1 µM [rising, single point] |
| Cc1cc(C)cc(N(C)S(=O)(=O)c2nnc(NC(=O)COc3ccc(Cl)cc3)s2)c1 | 1.41 µM [falling, single point] |  |
| CC(=O)c1cccc(NC(=O)CN2C(=O)CN(C)C(=O)c3ccccc32)c1 | 0.501 µM [falling, partial curve] | 0.282 µM [falling, full curve] |
| CC(C)=CCC/C(C)=C/Cc1c(O)ccc(C(=O)/C=C/c2ccc(O)cc2)c1O | 11.2 µM [rising, single point] | 14.1 µM [rising, partial curve] |

| Structure (SMILES) | AC50 [1] | AC50 [2] |
| --- | --- | --- |
| Cc1ccc(N2CCN(c3cc(C)nc4c(-c5ccc(Cl)cc5)c(C)nn34)CC2C)cc1 (configuration not stated) |  | 0.0355 µM [falling, full curve, poor fit] |
| O=C(Cc1ccc([N+](=O)[O-])cc1)Nc1ccc(Cl)cc1 | 0.0708 µM [falling, full curve] |  |
| Cc1cccc2cc(CN(Cc3cccs3)S(=O)(=O)c3ccc4c(c3)OCCO4)c(=O)[nH]c12 |  | 22.4 µM [rising, single point] |
| COc1ccc(NS(=O)(=O)c2cc(Cl)ccc2Cl)cc1S(=O)(=O)N1CCCCC1 | 0.112 µM [rising, full curve] |  |
| Cc1ccc(N2CCCCn3c2nc2c3c(=O)[nH]c(=O)n2C)cc1 | 2.82 µM [rising, single point] | 15.8 µM [rising, single point] |
| O=C(CSc1cc(Cl)ccc1Cl)NC1CCCc2ccccc21 (configuration not stated) | 5.01 µM [rising, partial curve] |  |
| CS(=O)(=O)N1CCCC(c2nc(-c3ccc(S(=O)(=O)NCc4ccccc4)cc3)no2)C1 (configuration not stated) | 3.98 µM [rising, full curve] | 3.16 µM [rising, full curve] |
| COC(=O)c1c(-c2ccc(F)cc2)noc1N |  | 22.4 µM [rising, single point] |
| O=C(c1cccs1)N1CCN(Cc2ccccc2[N+](=O)[O-])CC1 | 7.08 µM [rising, full curve, poor fit] | 1.26 µM [rising, partial curve, poor fit] |
| O=C(NCc1ccco1)c1cc([N+](=O)[O-])cc([N+](=O)[O-])c1 |  | 35.5 µM [rising, single point] |
| O=C(COc1ccc(Cl)cc1)Nc1nc(-c2ccc(S(=O)(=O)N3CCOCC3)cc2)cs1 |  | 31.6 µM [rising, single point] |
| COc1ccc(C(=O)On2c(-c3ccc(Br)cc3)nc3ccccc3c2=O)cc1 |  | 31.6 µM [rising, single point] |
| Cc1csc(NC(=O)CSc2nnc(-c3ccoc3C)n2CCc2ccccc2)n1 | 35.5 µM [rising, single point] | 31.6 µM [rising, single point] |
| CC(C)NC(=S)N/N=C/c1cc(Br)ccc1O | 14.1 µM [rising, single point] | 22.4 µM [rising, partial curve] |
| COc1ccc(CN2CN=C(Nc3nc4ccccc4s3)NC2)cc1 | 0.02 µM [falling, partial curve, poor fit] |  |
| O=C(c1ccc(Cl)cc1)N1CCC(O)(CSc2ccc(Cl)cc2Cl)CC1 | 35.5 µM [falling, single point] | 35.5 µM [falling, single point] |
| NS(=O)(=O)c1cccc(NC(=O)COC(=O)c2cc(-c3ccc(Cl)cc3)nc3ccccc23)c1 | 7.08 µM [falling, partial curve, poor fit] |  |
| O=C(c1c(F)cccc1F)N1CCC(n2nnc3cc(C(F)(F)F)ccc32)CC1 | 7.08 µM [falling, single point] | 2.82 µM [falling, single point] |
| C=CCN1C(=O)C(Cc2ccc(SC(F)F)cc2)SC1=Nc1ccc(C(=O)O)cc1 (configuration not stated) |  | 35.5 µM [rising, partial curve, poor fit] |
| O=C(NCc1cccs1)c1cc2c(s1)-c1ccccc1OC2 | 15.8 µM [rising, single point] | 22.4 µM [rising, single point] |
| COc1ccc(NC(=O)C2CCN(S(=O)(=O)c3cccc4cccnc34)CC2)cc1 |  | 8.91 µM [rising, partial curve] |
| CCOC(=O)C(NC(=O)Nc1ccc(Cl)cn1)(Oc1ccc(F)cc1)C(F)(F)F (configuration not stated) | 35.5 µM [falling, single point] |  |
| Cc1ccc[n+](CC(=O)Nc2cc(C(F)(F)F)ccc2N2CCOCC2)c1 | 8.91 µM [rising, partial curve] | 10 µM [rising, partial curve] |
| COc1ccc(-c2nc(CCNC(=O)c3ccco3)cs2)cc1OC |  | 7.94 µM [rising, single point] |
| O=C(N/N=C/c1ccc2c(c1)OCO2)C(=O)Nc1ccc2ccccc2c1 | 0.0794 µM [rising, full curve] |  |
| C=CCN1C(=O)NC(c2ccc(OC)cc2)(C(F)(F)F)S/C1=C(\C#N)c1nnc(N2CCOCC2)n1-c1ccccc1 (configuration not stated) |  | 12.6 µM [rising, partial curve] |
| O=C(c1cc2nc(-c3ccco3)cc(C(F)(F)F)n2n1)N1CCCCCC1 | 5.01 µM [rising, full curve, poor fit] | 10 µM [rising, partial curve] |

Reprinted at random: three entries already listed.

| Structure (SMILES) | AC50 [1] | AC50 [2] |
| --- | --- | --- |
| CC(=O)Nc1ccccc1OCC(=O)c1cc(C)n(Cc2cccs2)c1C | 0.126 µM [rising, full curve] | 0.126 µM [rising, full curve] |
| CCCC(=O)C1=C(O)C(C(=O)OC)C(C)(C)CC1=Nc1ccc(C)cc1 (configuration not stated) | 35.5 µM [falling, single point] | 35.5 µM [falling, single point] |
| O=C(COc1ccc(Cl)cc1)Nc1nc(-c2ccc(S(=O)(=O)N3CCOCC3)cc2)cs1 |  | 31.6 µM [rising, single point] |
